Results deposited as PubChem BioAssay AID504793 (Drosophila RNAi Screening Center, 2011)

Screen: 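Whole-genome screen for parts of the DNA damage checkpoint at G2/M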 (primary screen)
Cell system: Drosophila S2R+ cells
Knock-down reagent: long dsRNA against Drosophila genes, about 0.25 µg dsRNA per well
Duration: 4 days of dsRNA, then 4 hours of drug before read-out
Treatment: doxorubicin 0.5 µM for 4 hours to cause double-strand breaks, in cells also given a low, harmless dose of dsRNA against nbs to sensitise the assay
Measured: 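Mitotic index as the number of phospho-histone H3-positive cells in each well following doxorubicin, given as raw counts without normalisation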
Reading the numbers: mitotic cells: higher = more cells in mitosis, weaker G2 arrest
Active means: 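Genes are called active only when high mitotic counts were reproduced with independent dsRNAs and mitosis was checked for delay without damage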
Meaning of the calls: active = confirmed in follow-up tests; inactive = not confirmed
The deposit covers about 23,000 reagents; this is an unselected part of those that have a named target and a result. In the full data, 62 (0.27%) are marked active. 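Calls come from follow-up tests whose scores are not deposited, so confirmed genes may have low counts here; counts are not normalised per plate.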 Raw values are not corrected between plates. A number with no mark means an inactive call. Reagents against one gene are numbered here.

gene knocked down,reagent no.,"mitotic cells, replicate 1"
HLH3B (GeneID 31249),1,5
HLH3B (GeneID 31249),2,5
fipi (GeneID 33676),1,5
fipi (GeneID 33676),2,8
CG13872 (GeneID 37273),1,12
Nup50 (GeneID 35784),1,2
Nup50 (GeneID 35784),2,6
CG17005 (GeneID 34249),1,3
Jhbp14 (GeneID 34728),1,3
CG1307 (GeneID 40814),1,4
CG7848 (GeneID 36839),1,4
CG8773 (GeneID 41634),1,8
CG8773 (GeneID 41634),2,11
Actn (GeneID 31166),1,13
Actn (GeneID 31166),2,2
ImpE1 (GeneID 45879),1,3
ImpE1 (GeneID 45879),2,5
ImpE1 (GeneID 45879),3,8
grn (GeneID 40962),1,8
grn (GeneID 40962),2,3
CG5177 (GeneID 34017),1,3
how (GeneID 42596),1,6
CG31517 (GeneID 251711),1,10
baf (GeneID 34095),1,8
baf (GeneID 34095),2,5
CG17475 (GeneID 42069),1,5
CG17475 (GeneID 42069),2,5
CG9106 (GeneID 32454),1,5
CG9106 (GeneID 32454),2,7
MFS3 (GeneID 33292),1,5
MFS3 (GeneID 33292),2,9
Rpn6 (GeneID 36638),1,29
scaRNA:MeU5-C46 (GeneID 3772530),1,10
CG12728 (GeneID 31526),1,8
CG31600 (GeneID 318834),1,7
CG31600 (GeneID 318834),2,1
CG8915 (GeneID 32715),1,3
mRpS30 (GeneID 32530),1,8
Rack1 (GeneID 34070),1,3
Rack1 (GeneID 34070),2,8
bero (GeneID 35355),1,1
bero (GeneID 35355),2,11
CG17321 (GeneID 35144),1,5
CG17321 (GeneID 35144),2,6
CG30020 (GeneID 36156),1,13
CG30020 (GeneID 36156),2,6
CR31846 (retired record) (GeneID 10178826),1,9
CG13970 (GeneID 2768911),1,9
CG13970 (GeneID 2768911),2,5
CG12081 (GeneID 31799),1,6
PKD (GeneID 42203),1,6
Vps35 (GeneID 37536),1,6
Vps35 (GeneID 37536),2,2
CG17328 (GeneID 34962),1,11
CG17328 (GeneID 34962),2,15
CG17328 (GeneID 34962),3,6
CG7115 (GeneID 34069),1,6
CG7115 (GeneID 34069),2,9
CG12084 (GeneID 192509),1,8
CG12084 (GeneID 192509),2,5
Hmg-2 (GeneID 37407),1,6
Hmg-2 (GeneID 37407),2,15
Chs2 (GeneID 40442),1,4
CG8036 (GeneID 41027),1,8
Qsox4 (GeneID 318720),1,10
CG11037 (GeneID 40317),1,2
Ho (GeneID 41407),1,4
CG33284 (GeneID 2768989),1,9
CG33284 (GeneID 2768989),2,6
Cc2d2a (GeneID 36982),1,4
Cc2d2a (GeneID 36982),2,7
Cc2d2a (GeneID 36982),3,9
Teh2 (GeneID 38502),1,3
Teh2 (GeneID 38502),2,2
Cpr76Bd (GeneID 40123),1,6

6 successive reagents from above, quoted:
gene knocked down,reagent no.,"mitotic cells, replicate 1"
CG13970 (GeneID 2768911),2,5
CG12081 (GeneID 31799),1,6
PKD (GeneID 42203),1,6
Vps35 (GeneID 37536),1,6
Vps35 (GeneID 37536),2,2
CG17328 (GeneID 34962),1,11
